Source: PubChem BioAssay AID651640 (Broad Institute, 2012)
The whole screen tested about 350,000 compounds, of which about 6,000 (1.7%) were called active. Inconclusive means that the source gave no clear call. Such entries were picked first, then a sample of the others. No stated cut-off is given here; in the data, active means CPE inhibition above about 20% (passing the limit was not always enough); inconclusive means no clear call, values can overlap the other calls; tested in BHK-21 cells.

assay: protection of cells from dengue 2 killing – plate reader, single concentration, primary screen (AID 651640); conditions: DENV2-infected cells, cytopathic effect rescue, at 9.99 µM, active compounds read high;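 further: 0% = median of neutral control wells and 100% = median of positive control wells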

Row | SMILES | CPE inhibition
1 | COc1cccc(OCc2cc(/C=N/n3cncn3)ccc2OC)c1 | inactive: -4.58%
2 | CCOc1ccccc1OCC(=O)Nc1ccccc1C(=O)NC1CC1 | inconclusive: 32.4%
3 | S=C(NC1CCCCC1)NN1CCCCCC1 | inconclusive: 72.6%
4 | CCCCn1c(N)c(N(CCOC)C(=O)c2ccc(C)c(S(=O)(=O)N3CCOCC3)c2)c(=O)[nH]c1=O | inconclusive: 22.1%
5 | O=C(C1CCOCC1)N1C[C@@H]2[C@H](c3ccccc31)[C@H](CO)N2C(=O)Cc1ccccn1 | inconclusive: 80.9%
6 | O=C(c1cnccn1)N1CC[C@@H]2[C@@H](CO)Nc3ccc(-c4ccccc4F)cc3[C@@H]21 | active: 114%
7 | COc1ccc(-n2c(C)cc(C(=O)COC(=O)Cc3n[nH]c(=O)c4ccccc34)c2C)cc1 | inactive: -1.51%
8 | COCC(=O)Nc1ccc2c(c1)C(=O)N(C)C[C@H](OC)[C@H](C)CN(C(=O)CC1CC1)[C@H](C)CO2 | active: 42.5%
9 | Cc1ccc2nc(-c3cccc(Br)c3)c(Cc3cccc(Cl)c3)n2c1 | active: 53.9%
10 | CC(C)(C)S(=O)(=O)c1cnc(-c2ccccn2)nc1N | inconclusive: 21.4%
11 | O=C(Nc1ccccc1)N1C[C@@H]2[C@H](c3ccccc31)[C@@H](CO)N2C(=O)c1ccccn1 | active: 71.2%
12 | O=C(CSc1nc2ccccc2c(=O)n1-c1ccccc1Cl)Nc1cccc(S(=O)(=O)N2CCOCC2)c1 | active: 63.4%
13 | O=C(C[C@@H]1CC[C@@H](NC(=O)Cc2cccnc2)[C@H](CO)O1)Nc1ccc(-c2ccccc2)cc1 | inconclusive: 27.8%
14 | Nc1nn(-c2ccccc2)c2ccc([N+](=O)[O-])cc12 | inactive: 3.1%
15 | CCOC(=O)C1=C(c2ccccc2)N=c2s/c(=C\c3ccc(O)cc3)c(=O)n2C1c1cccs1 (stereo not given) | inconclusive: 27.3%
16 | CSc1ccccc1NC(=O)c1cc2c(=O)n3ccccc3nc2s1 | active: 22.3%
17 | O=C(/C=C/c1ccco1)c1cccnc1 | inconclusive: 37%
18 | COCCNC(=O)c1sc(=O)n(Cc2ccc(SC)cc2)c1C | inconclusive: 23.6%
19 | C[C@@H]1CCCCO[C@H](CN(C)Cc2ccc(C(=O)O)cc2)[C@H](C)CN([C@@H](C)CO)C(=O)c2cc(NC(=O)NC3CCCCC3)ccc2O1 | inactive: 0.732%
20 | CCC(=O)Nc1ccc2c(c1)C(=O)N(C)[C@H]1CC[C@H](CC(=O)NCCOC)O[C@H]1CO2 | inactive: -4.96%
21 | CCOC(=O)N1CCC(NC(=O)c2cc(C(=O)NC3CCCC3)ccc2CO)CC1 | inconclusive: 30.4%
22 | CCC(=O)Nc1ccc2c(c1)C(=O)N(C)C[C@@H](OC)[C@@H](C)CN(C(C)=O)[C@@H](C)CO2 | active: 31.9%
23 | CN(C)CC(=O)N1[C@H](CO)[C@H](c2ccc(/C=C/c3ccccc3)cc2)[C@@H]1C#N | inconclusive: 24%
24 | CCOC(=O)CN1CC23C=CC(O2)C(C(=O)NC2CCCCCC2)C3C1=O (stereo not given) | inactive: -0.04%
25 | CC1CCN(S(=O)(=O)c2cc(C(=O)NC3(C)CCS(=O)(=O)C3)ccc2Br)CC1 (stereo not given) | inconclusive: 27.5%

Reprinted: entries 5–6
Row | SMILES | CPE inhibition
5 | O=C(C1CCOCC1)N1C[C@@H]2[C@H](c3ccccc31)[C@H](CO)N2C(=O)Cc1ccccn1 | inconclusive: 80.9%
6 | O=C(c1cnccn1)N1CC[C@@H]2[C@@H](CO)Nc3ccc(-c4ccccc4F)cc3[C@@H]21 | active: 114%

Continued.

Row | SMILES | CPE inhibition
26 | COCCN(CC(=O)Nc1cccc(C)c1C)C(=O)CN1C(=O)NC2(CCCCC2)C1=O | inactive: -1.36%
27 | COc1cc(OC)c2c3c(c(C4CCCCC4)nc2c1)CCCC3 | inactive: 4.07%
28 | C[C@H](CO)N1C[C@H](C)[C@H](CN(C)CC2CC2)Oc2ccc(NC(=O)CCN3CCOCC3)cc2C1=O | inconclusive: 20.8%
29 | O=C(CN1CCN(c2ccccc2)CC1)NCc1ccc(F)cc1 | inconclusive: 30.4%
30 | Cn1cccc1-c1cc(C(=O)N2CCc3c([nH]c4ccccc34)C2c2ccccn2)[nH]n1 (stereo not given) | inactive: 3.14%
31 | Cc1ccc([C@H]2C[C@@H](n3cc(-c4ccc(F)cc4)nn3)[C@H](O)CN2C(=O)c2cccs2)cc1 | active: 32.5%
32 | Cc1cccc(-c2ccc([C@H]3[C@@H](CO)N4CCCCN(C(=O)c5ccncc5)C[C@H]34)cc2)c1 | active: 20.4%
33 | CCC(C)C(CO)NCCCn1cnc(C(=O)Nc2ccc(C)c(C)c2)n1 (stereo not given) | active: 59.4%
34 | C[C@@H]1CN([C@H](C)CO)C(=O)c2cc(NS(=O)(=O)c3cccs3)ccc2O[C@@H]1CN(C)Cc1ccc(Oc2ccccc2)cc1 | inactive: 3.15%
35 | C[C@@H](NC(=O)C[C@H]1CC[C@H]2[C@@H](COC[C@H](O)CN2C(=O)Nc2ccccc2)O1)c1ccccc1 | active: 49.7%
36 | CCN(c1ccccc1)S(=O)(=O)c1ccc(OC)c(NC(=O)C2CCC2)c1 | active: 67.5%
37 | C[C@H](CO)N1C[C@H](C)[C@@H](CN(C)C(=O)Nc2ccc(F)cc2)Oc2ccc(NS(C)(=O)=O)cc2C1=O | inconclusive: 29.6%
38 | Cc1ccccc1-n1c([C@@H]2C[C@H]2c2ccccc2)n[nH]c1=S | inactive: 0.909%
39 | Cc1cc(C)n(Cc2ccc(C(=O)O)cc2)n1 | inconclusive: 30.8%
40 | Cc1cc(C(=O)Nc2cccc3c2O[C@@H](CN(C)CC2CCCCC2)[C@@H](C)CN([C@@H](C)CO)C3=O)n(C)n1 | inactive: -3.57%
41 | COC(=O)Cn1c2ccccc2c(=O)n1C(C)C | active: 20.5%
42 | COc1ccc(NC(=O)Nc2cccc3c2O[C@H](CN(C)C(=O)Nc2ccc(OC)cc2)[C@@H](C)CN([C@@H](C)CO)C3=O)cc1 | active: 144%
43 | CCN1C(=O)[C@H]2[C@H]3CN=C(SC)N3[C@@](Cc3ccccc3)(C(=O)OC)[C@H]2C1=O | inconclusive: 21.1%
44 | CS(=O)(=O)N1CCN(c2ccccc2[N+](=O)[O-])CC1 | inactive: -1.83%
45 | Cc1c(NS(=O)(=O)c2ccc(Cl)c(C(=O)OCC(=O)NCc3ccco3)c2)c(=O)n(-c2ccccc2)n1C | inconclusive: 31.7%
46 | C[C@H](CO)N1C[C@H](C)[C@H](CN(C)Cc2ccc3c(c2)OCO3)Oc2ccc(NC(=O)c3ccncc3)cc2C1=O | inactive: -0.959%
47 | CCN1CCC(N2CCN(c3ccc(F)cc3)CC2)CC1 | active: 28.4%
48 | CN1C(=O)c2cc(NC(=O)NCc3ccccc3)ccc2OC[C@H]2O[C@@H](CC(=O)NCC3CCCCC3)CC[C@@H]21 | inconclusive: 82.3%
49 | COc1ccc(C2C(C)C3(O)CC(C#N)(C(=O)N3)C2(C#N)C#N)cc1 (stereo not given) | inconclusive: 26.2%
50 | C[C@H]1CN([C@@H](C)CO)C(=O)c2cc(-c3ccncc3)cnc2O[C@H]1CN(C)C(=O)c1ccc(F)cc1 | inconclusive: 42.3%

Arranged by heavy-atom count (low to high): 3 of the compounds above
Row | SMILES | CPE inhibition
47 | CCN1CCC(N2CCN(c3ccc(F)cc3)CC2)CC1 | active: 28.4%
28 | C[C@H](CO)N1C[C@H](C)[C@H](CN(C)CC2CC2)Oc2ccc(NC(=O)CCN3CCOCC3)cc2C1=O | inconclusive: 20.8%
12 | O=C(CSc1nc2ccccc2c(=O)n1-c1ccccc1Cl)Nc1cccc(S(=O)(=O)N2CCOCC2)c1 | active: 63.4%

(continued)

Row | SMILES | CPE inhibition
51 | COc1ccc(CNC(=O)CN(c2cc(C)cc(C)c2)S(=O)(=O)c2c(C)noc2C)cc1 | inconclusive: 23.6%
52 | C[C@@H]1CN([C@@H](C)CO)C(=O)Cc2cc(NC(=O)C3CCCCC3)ccc2O[C@H]1CN(C)Cc1ccc(Cl)c(Cl)c1 | inactive: 7.03%
53 | C[C@H](CO)N1C[C@H](C)[C@H](CN(C)Cc2ccc(Cl)c(Cl)c2)Oc2ccc(NC(=O)Cn3cnnn3)cc2C1=O | inconclusive: 27%
54 | COc1ccc(-c2ccc3c(c2)[C@@H]2[C@@H](CCN2C(=O)c2cnccn2)[C@H](CO)N3)cc1 | inconclusive: 72.2%
55 | COC(=O)c1ccc(OCC(=O)c2ccc(C)c(C)c2)cc1 | inconclusive: 33.9%
56 | O=C(c1cc(COc2cccc3cnccc23)on1)N1CCCC(CCCO)C1 (stereo not given) | inactive: 3.67%
57 | CCc1ccccc1OCC(=O)Nc1ccc(F)c(S(=O)(=O)N2CCOCC2)c1 | inconclusive: 48%
58 | C[C@H]1CN([C@@H](C)CO)C(=O)c2cc(NC(=O)Nc3ccc(C(F)(F)F)cc3)ccc2O[C@H]1CN(C)Cc1ccc(C(=O)O)cc1 | inconclusive: 32.2%
59 | O=C(O)c1cc(-c2ccco2)nn1-c1cccc(Cl)c1 | inactive: -4.46%
60 | Cc1ccc(N2C(=O)N(CC(=O)Nc3cccc(Cl)c3)C(=O)C2C)cc1 (stereo not given) | inconclusive: 63.1%
61 | COc1ccc(CC(=O)N[C@@H]2c3cc(OC)c(OC)cc3C[C@H]2OCc2ccccc2)cc1 | inconclusive: 43.7%
62 | CCCNC(=O)C1(C)CCCN(C(=O)c2ccc3sccc3c2)C1 (stereo not given) | inconclusive: 22.8%
63 | CS(=O)(=O)c1ccccc1C(=O)N(CCC1=CCCCC1)c1c(N)n(Cc2ccccc2)c(=O)[nH]c1=O | inconclusive: 28.3%
64 | CCCC(=O)Nc1cc(OCC)c(NC(=O)NC2CCCCC2)cc1OCC | inconclusive: 32.8%
65 | O=C(O)c1sccc1Oc1ccc(NS(=O)(=O)c2ccc(Cl)cc2)cc1 | inconclusive: 20.2%
66 | COc1ccccc1NC(=O)COC(=O)c1cc([N+](=O)[O-])ccc1N1CCCC1 | inconclusive: 45.1%
67 | Cc1cc(=O)n2nc(N3CCCC(C(=O)NCc4ccccc4)C3)sc2n1 (stereo not given) | inconclusive: 58.1%
68 | Cc1ccc(C(=O)N2CCN(S(=O)(=O)N3CCOCC3)CC2)cc1 | inactive: -4.28%
69 | O=C1CCCc2ccccc2N1Cc1ccccc1 | inactive: 7.71%
70 | COc1ccc(NS(=O)(=O)c2ccc(/C=C/C(=O)O)cc2)cc1S(=O)(=O)N1CCOCC1 | inactive: 6.17%
71 | CCOC(=O)[C@@H]1[C@H]2COc3ccccc3[C@H]2N2C(=O)N(c3ccc(Br)cc3)C(=O)[C@]12C | inconclusive: 33.9%
72 | NC(=O)C1CCN(c2oc(/C=C/c3ccc(F)cc3)nc2S(=O)(=O)c2ccccc2)CC1 | inconclusive: 24.1%
73 | CCCCOCCCNC(=O)C[C@@H]1C[C@@]2(C(=O)OC)CC(C)(C)CC=C2N(Cc2ccc3c(c2)OCO3)C1=O | active: 27.6%
74 | Cc1occc(=O)c1OCc1ccc(Cl)cc1Cl | inconclusive: 38.6%
75 | CO[C@@H]1CN(C)C(=O)c2ccc(NS(C)(=O)=O)cc2OC[C@@H](C)N(C(=O)C2CCOCC2)C[C@H]1C | inactive: -4.07%
